# Measured values: article PMC5489529
# Sequences of proteins named here, by UniProt entry; tags and fusion partners are left off. Residues count along the entry.
# UniProt P98158, residues 26-4660: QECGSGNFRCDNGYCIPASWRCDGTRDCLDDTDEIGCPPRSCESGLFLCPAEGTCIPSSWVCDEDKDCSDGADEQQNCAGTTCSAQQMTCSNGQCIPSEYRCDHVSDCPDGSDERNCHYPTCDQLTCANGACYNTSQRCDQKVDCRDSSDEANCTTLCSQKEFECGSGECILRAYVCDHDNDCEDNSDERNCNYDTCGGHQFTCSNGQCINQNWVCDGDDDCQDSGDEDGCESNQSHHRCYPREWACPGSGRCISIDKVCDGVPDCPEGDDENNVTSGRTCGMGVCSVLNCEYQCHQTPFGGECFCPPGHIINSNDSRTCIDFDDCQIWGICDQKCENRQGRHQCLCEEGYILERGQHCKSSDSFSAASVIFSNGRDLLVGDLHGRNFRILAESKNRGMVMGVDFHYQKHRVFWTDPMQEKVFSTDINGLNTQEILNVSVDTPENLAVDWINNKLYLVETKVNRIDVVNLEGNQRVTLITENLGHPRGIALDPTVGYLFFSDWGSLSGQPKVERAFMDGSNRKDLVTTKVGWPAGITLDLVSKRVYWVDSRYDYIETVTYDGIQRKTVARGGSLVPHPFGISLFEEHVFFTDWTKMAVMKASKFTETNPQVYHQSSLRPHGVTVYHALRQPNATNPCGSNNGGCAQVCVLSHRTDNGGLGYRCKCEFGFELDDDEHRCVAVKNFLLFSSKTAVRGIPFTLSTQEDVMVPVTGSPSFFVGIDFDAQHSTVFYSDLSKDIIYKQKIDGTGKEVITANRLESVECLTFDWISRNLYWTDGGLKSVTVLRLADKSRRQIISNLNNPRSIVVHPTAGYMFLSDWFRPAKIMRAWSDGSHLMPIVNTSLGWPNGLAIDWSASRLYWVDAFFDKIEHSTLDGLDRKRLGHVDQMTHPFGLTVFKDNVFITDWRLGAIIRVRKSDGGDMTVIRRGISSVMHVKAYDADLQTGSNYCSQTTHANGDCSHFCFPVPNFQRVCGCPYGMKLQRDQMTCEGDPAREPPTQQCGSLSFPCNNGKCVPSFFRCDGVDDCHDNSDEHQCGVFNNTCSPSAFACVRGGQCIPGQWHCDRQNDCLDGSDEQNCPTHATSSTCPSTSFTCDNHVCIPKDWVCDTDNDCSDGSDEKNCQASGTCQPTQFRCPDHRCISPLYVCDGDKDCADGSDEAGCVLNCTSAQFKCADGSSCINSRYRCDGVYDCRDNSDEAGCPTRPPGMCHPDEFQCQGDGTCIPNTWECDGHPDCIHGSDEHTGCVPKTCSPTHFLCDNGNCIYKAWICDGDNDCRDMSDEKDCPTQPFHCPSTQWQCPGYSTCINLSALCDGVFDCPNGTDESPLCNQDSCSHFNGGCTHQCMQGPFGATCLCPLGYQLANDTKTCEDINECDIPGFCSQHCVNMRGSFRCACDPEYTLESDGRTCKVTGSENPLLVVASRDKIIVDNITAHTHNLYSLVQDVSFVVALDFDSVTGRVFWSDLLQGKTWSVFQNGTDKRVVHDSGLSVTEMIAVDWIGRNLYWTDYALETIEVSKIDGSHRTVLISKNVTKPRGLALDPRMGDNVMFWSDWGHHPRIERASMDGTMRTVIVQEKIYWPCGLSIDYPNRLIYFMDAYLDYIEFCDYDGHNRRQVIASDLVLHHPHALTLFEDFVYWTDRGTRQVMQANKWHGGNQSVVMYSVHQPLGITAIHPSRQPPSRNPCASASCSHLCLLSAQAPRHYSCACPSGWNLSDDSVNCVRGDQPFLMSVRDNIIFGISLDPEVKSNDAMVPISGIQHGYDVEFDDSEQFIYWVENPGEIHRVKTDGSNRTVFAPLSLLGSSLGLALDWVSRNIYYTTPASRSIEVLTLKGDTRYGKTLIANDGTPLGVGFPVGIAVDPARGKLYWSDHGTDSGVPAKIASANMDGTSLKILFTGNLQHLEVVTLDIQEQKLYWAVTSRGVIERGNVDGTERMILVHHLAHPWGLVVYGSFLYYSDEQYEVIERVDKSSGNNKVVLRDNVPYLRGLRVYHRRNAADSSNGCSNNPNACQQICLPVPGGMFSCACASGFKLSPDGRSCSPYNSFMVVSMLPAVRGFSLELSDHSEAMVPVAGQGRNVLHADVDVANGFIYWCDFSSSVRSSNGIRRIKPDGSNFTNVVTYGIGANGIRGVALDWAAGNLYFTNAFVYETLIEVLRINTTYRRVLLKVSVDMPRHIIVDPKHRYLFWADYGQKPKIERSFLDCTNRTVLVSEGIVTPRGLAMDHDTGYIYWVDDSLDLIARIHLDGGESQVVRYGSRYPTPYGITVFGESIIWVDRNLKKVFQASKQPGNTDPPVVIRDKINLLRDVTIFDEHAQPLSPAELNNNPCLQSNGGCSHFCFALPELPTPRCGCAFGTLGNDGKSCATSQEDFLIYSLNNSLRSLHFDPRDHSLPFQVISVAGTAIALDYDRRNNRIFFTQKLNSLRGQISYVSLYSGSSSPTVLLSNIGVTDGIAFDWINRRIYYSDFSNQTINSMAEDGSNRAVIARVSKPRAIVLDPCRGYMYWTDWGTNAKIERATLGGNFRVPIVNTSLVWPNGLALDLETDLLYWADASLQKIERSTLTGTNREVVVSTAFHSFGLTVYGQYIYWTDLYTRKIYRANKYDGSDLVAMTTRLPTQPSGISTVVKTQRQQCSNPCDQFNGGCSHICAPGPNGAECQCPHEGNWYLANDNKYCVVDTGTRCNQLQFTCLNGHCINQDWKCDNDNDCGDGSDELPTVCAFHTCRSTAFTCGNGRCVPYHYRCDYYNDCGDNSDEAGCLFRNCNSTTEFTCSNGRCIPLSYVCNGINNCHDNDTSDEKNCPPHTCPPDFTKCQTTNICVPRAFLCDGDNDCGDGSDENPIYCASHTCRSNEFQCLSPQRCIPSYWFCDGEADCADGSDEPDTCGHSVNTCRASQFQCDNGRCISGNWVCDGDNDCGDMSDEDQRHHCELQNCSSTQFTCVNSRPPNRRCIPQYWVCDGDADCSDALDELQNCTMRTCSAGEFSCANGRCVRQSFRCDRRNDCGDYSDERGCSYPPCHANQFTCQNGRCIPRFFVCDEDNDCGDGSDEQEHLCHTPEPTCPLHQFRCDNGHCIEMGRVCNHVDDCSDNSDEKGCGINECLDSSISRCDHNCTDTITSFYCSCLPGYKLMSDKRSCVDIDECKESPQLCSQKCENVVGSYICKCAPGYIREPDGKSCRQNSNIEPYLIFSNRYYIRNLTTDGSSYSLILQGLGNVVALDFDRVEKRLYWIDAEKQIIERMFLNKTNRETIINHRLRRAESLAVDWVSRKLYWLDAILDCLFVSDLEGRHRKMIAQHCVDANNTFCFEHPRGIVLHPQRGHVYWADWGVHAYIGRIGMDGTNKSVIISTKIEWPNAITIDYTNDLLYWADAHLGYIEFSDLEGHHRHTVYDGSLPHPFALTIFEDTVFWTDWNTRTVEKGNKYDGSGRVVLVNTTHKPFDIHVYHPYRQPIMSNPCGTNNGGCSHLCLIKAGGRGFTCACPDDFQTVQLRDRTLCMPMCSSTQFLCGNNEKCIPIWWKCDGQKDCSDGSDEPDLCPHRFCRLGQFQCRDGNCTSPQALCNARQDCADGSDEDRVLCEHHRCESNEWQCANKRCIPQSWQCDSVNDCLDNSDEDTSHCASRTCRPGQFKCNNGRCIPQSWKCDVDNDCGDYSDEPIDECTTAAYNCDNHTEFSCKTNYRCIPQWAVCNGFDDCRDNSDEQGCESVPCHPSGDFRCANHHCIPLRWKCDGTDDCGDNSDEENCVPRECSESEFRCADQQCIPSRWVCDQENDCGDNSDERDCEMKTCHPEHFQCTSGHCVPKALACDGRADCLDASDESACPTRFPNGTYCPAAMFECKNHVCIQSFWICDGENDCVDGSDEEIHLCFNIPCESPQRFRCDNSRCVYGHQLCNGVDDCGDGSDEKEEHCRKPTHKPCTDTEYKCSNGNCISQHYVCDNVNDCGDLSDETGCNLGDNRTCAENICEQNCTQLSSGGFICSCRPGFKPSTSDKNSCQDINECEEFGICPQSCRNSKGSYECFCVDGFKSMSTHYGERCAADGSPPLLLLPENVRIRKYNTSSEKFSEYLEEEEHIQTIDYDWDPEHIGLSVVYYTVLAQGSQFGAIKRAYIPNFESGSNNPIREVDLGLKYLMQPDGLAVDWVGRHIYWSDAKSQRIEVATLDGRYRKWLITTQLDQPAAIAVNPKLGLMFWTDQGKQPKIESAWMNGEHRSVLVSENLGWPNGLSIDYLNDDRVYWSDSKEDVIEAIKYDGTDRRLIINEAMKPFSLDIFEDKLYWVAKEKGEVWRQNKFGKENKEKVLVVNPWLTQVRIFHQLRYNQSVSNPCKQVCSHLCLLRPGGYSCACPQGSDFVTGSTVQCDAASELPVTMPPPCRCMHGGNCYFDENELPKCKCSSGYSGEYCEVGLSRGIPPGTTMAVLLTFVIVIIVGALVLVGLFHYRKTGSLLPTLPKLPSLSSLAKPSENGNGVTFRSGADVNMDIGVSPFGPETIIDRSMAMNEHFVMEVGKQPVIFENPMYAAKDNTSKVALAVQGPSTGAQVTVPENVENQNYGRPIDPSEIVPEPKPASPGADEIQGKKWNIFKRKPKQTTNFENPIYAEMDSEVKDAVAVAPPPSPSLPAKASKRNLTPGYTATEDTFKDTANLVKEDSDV
# UniProt P30533, residues 35-357: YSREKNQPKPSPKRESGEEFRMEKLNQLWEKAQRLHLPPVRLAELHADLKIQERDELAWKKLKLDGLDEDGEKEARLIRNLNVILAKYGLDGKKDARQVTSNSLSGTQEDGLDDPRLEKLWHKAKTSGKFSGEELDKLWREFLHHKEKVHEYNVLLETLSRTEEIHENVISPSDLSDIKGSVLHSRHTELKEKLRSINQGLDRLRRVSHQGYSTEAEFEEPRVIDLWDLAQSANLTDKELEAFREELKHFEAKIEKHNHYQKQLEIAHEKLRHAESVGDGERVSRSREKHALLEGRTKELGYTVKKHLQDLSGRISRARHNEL
# No constants are given. Whether binding was seen depends on the method and setting. Some results given as binding are weak or reduced against the parent protein; the word gives no strength.
# Target: megalin/LRP-2 on BN16 rat yolk sac carcinoma cells (rat (endogenous in BN16)) (UniProt P98158)
# Assay: radioligand binding; confluent BN16 cells at 4 °C, 10 nM 125I-proMMP-2:TIMP-2 for up to 2 h, without or with 1 uM RAP, anti-megalin/LRP-2 IgG, anti-LRP-1 IgG or non-immune IgG (100 ug/ml); surface-bound = pronase-sensitive radioactivity; only the binder purified
substance,measurement,value
Receptor-associated protein (RAP) (from UniProt P30533 35-357),binding,binds
